According to patent US5583142A, “Analgesic and nootropic drugs” (priority 1992, dated 1996):

Assays:
rat tail-flick test = type: in vivo
Description: (§1) The analgesic action was detected in mouse, rat, guinea pig and dog. The mouse was subjected to hot plate and writhing tests; the rat to tail-flick and paw-pressure tests; the guinea pig to paw-pressure test only; the dog to the test described by Vainio et al. [J. Vet. Pharmacol. Ther., 12, 225-231 (1989)] using an electric stimulation. Consequently, the claimed compounds were tested with pain being induced by stimuli of different nature: thermal (hot plate and tail flick), chemical (writhing by acetic acid), mechanical (paw pressure) and electrical (cutaneous stimulation).
(§2) As already mentioned, the claimed products were assayed also in rat by the paw-pressure and tail-flick tests.
(§3) Both tests were carried out with the max. doses not impairing the rats normal behaviour. In fact, no difference in behaviour appeared on observation, to the extent that researchers, who were unaware of the treatment received by the animals, were unable to distinguish among the various groups. The painful stimulus utilized in the paw-pressure test involved the animal consciousness to a much greater extent than the stimulus used in the tail-flick test, in fact, the type and anatomic localization of the latter mainly involved a spinal response.
(§4) Both tests on rats were carried out with the max. doses not altering the behaviour of the treated animals. […]

[1] = type: in vivo; details: mouse hot plate
Description: as §1
Potency, efficacy and toxicity of SM21, PG9 and SM32 in comparison with
four principal reference analgesic drugs tested in mouse. As analgesic

[2] = mouse, in vivo
Description: In FIGS. 7 and 7 bis vertical lines give s.e. mean. Each column represents the mean of 6-10 mice. SM-21 maleate, PG-9 maleate, SM-32 oxalate, cocaine HCl, amphetamine sulphate and caffeine were administered 15 min before test.

[3] = mouse acetic acid writhing test; type: in vivo; details: 8 mg/kg s.c.
Description: as §1
The claimed molecules, chosen as examples, were also assayed in mice by the writhing test (Table 4). The test is meant to evaluate the products capability to prevent mice writhes ensuing abdominal pains caused by i.p. injection of a 0.6% aqueous solution of acetic acid.
Acetic acid solution = 0.6% v/v.

rat paw-pressure test = type: in vivo
Description: as §1, §2, §3, §4

Structure (SMILES): CN1CC[C@]23c4c5ccc(O)c4O[C@H]2[C@@H](O)C=C[C@H]3[C@H]1C5.Cl [Morphine HCl]
- activity in tail-flick test, in words (rat tail-flick test): most active compound
- analgesic efficacy / degree of analgesia compared with claimed compounds [1]: lower than that of SM-21, PG-9, and SM-32
- motor activity and curiosity (exploration activity) [2]: remarkably increase the motor activity
- percent inhibition [3]: 74.8%
- activity in paw-pressure test, in words (rat paw-pressure test): most active compound
